Reference: PubChem BioAssay AID1259254 (NCATS, 2017)
Shown is an unselected part of about 59,000 deposited reagents. Over the whole deposit, about 1,550 (2.6%) were called active. 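G2 share is only a proxy for re-replication; each gene was hit by three separate siRNAs, and active genes were retested.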 Unmarked entries are inactive. The numbers tell different reagents against one gene apart. Not all columns of the deposit are shown. Not given: the amount of reagent.

Purpose: 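Gene knock-downs that lead to re-replication, shown by excess G2 DNA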 (primary screen)
Cells: human HCT116 colorectal cancer cells
Reagent: single siRNA against human genes
Duration: 3 days
Measurement: 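Imaged Hoechst DNA stain sorts each cell into a cycle phase by DNA amount; per plate, G2 fraction set to 0% for non-targeting and 100% for GMNN siRNA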
Scale: G2 robust z-score: higher = more G2 cells, more excess DNA replication
Call rule: 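An siRNA counts as active if its G2 robust z-score lies at least 5 MADs above the screen median; here such calls match roughly 38% of GMNN control or more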

Which result is listed for LRRN3 (leucine rich repeat neuronal 3) #1?
G2 robust z-score: 1.45

For LRRN3 (leucine rich repeat neuronal 3) #2, what was measured?
G2 robust z-score: 2.35

What is on record for LRRN3 (leucine rich repeat neuronal 3) #3?
G2 robust z-score: 0.899

With NEIL3 (nei like DNA glycosylase 3) #1, how do the results read?
G2 robust z-score: -1.1

For NEIL3 (nei like DNA glycosylase 3) #2, how do the results read?
G2 robust z-score: 1

How did the screen score NEIL3 (nei like DNA glycosylase 3) #3?
G2 robust z-score: -0.621

2 neighbouring entries already listed:
NEIL3 (nei like DNA glycosylase 3) #2 | G2 robust z-score = 1
NEIL3 (nei like DNA glycosylase 3) #3 | G2 robust z-score = -0.621

Next records follow:
How did the screen score C1QTNF3 (C1q and TNF related 3) #1?
G2 robust z-score: -0.271

How did the screen score C1QTNF3 (C1q and TNF related 3) #2?
G2 robust z-score: -0.537

For C1QTNF3 (C1q and TNF related 3) #3, how do the results read?
G2 robust z-score: -0.553

For KLK1 (kallikrein 1) #1, what was measured?
G2 robust z-score: 0.461

For KLK1 (kallikrein 1) #2, what was measured?
G2 robust z-score: -0.398

For KLK1 (kallikrein 1) #3, how do the results read?
G2 robust z-score: 0.00978

For MED31 (mediator complex subunit 31) #1, what was measured?
G2 robust z-score: -0.988

What did the screen give for MED31 (mediator complex subunit 31) #2?
G2 robust z-score: -0.266

With MED31 (mediator complex subunit 31) #3, what was measured?
G2 robust z-score: 1.72

What did the screen give for ECHDC2 (enoyl-CoA hydratase domain containing 2) #1?
G2 robust z-score: 0.933

For ECHDC2 (enoyl-CoA hydratase domain containing 2) #2, what does the deposit list?
G2 robust z-score: -0.637

How did the screen score ECHDC2 (enoyl-CoA hydratase domain containing 2) #3?
G2 robust z-score: -0.105
